Earlier results in US6426317B1, “Stable, high available halogen 1,3,5-triazine-2,4,6-trione compositions having rapid dissolution rates” (Great Lakes Chemical Corporation, priority 1999, dated 2002).
Where “and” joins values, the source holds several entries; their conditions need not be identical. Equal values may be shown once. Read-outs that look alike come from different tables or passages of the source. At least one structure is not confirmed: it was looked up by name or label, or the drawing left a doubt.

Details: cited from earlier work

| Structure (SMILES) | Available Halogen | Available Halogen (listed as potassium dichloroisocyanurate) |
| --- | --- | --- |
| [Ca+2].[O-]Cl.[O-]Cl [Calcium hypochlorite, calcium hypochlorite] | 65-75% |  |
| O=c1[n-]c(=O)n(Cl)c(=O)n1Cl.[K+] [Potassium dichloroisocyanurate anhydrous, potassium dichloroisocyanurate] | 58% | 58% |
| O=c1nc([O-])n(Cl)c(=O)n1Cl.[Na+] [Sodium dichloroisocyanurate anhydrous, sodium dichloroisocyanurate] | 62% and 60-63% |  |
